Results published in PubChem BioAssay AID1347075 (National Center for Advancing Translational Sciences (NCATS), 2019).
Values joined by “and” are separate entries in the source; they are usually repeats but may differ in a detail not shown here. Equal entries are not always repeated. About 5,500 (1.4%) of roughly 400,000 compounds were called active. Inconclusive results, whose numbers are uncertain, are shown with a selection of clear calls. Calls come from the whole dose curve; as a rule, active = well fitted cell-killing curve with a large enough effect; inconclusive = small, poorly fitted or top-dose-only effect, or effect the other way; inactive = flat fitted curve, though single readings scatter. Potencies beside an inconclusive call are fits to weak or partial responses and may not hold up.

Experiment: qHTS assay for MDR1-selective chemotherapeutics: Primary screen using the parental adenocarcinoma cell KB-3-1; note: nearly all actives have a fitted effect of over 60% in size
Settings: KB-3-1 viability, CellTiter-Glo ATP luminescence, 72 h; activity change, negative = cytotoxic: at 46.1 µM (top of the series)
Outline: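 KB-3-1 parental drug-naive adenocarcinoma cells in DMEM/10% FBS, incubated 72 h at 37 C with pin-transferred compounds across a concentration series. Viability by CellTiter-Glo luminescence; concentration-response curves fitted after normalization.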
% is set by controls: 0 for no effect and ±100 for the full control effect; potency is the fitted concentration of half-maximal effect.

Q: For `O=S(=O)(N1CCCCCC1)N1CCNCC1`, which Potency is on record?
A: The Potency was “inactive”.

Q: With `CC(NC(=O)Cc1ccccc1)c1cc2c(cc1Br)OCCCO2` (stereo unspecified) as the molecule, how does the Potency read?
A: Its Potency is inconclusive: 18.4 µM [cytotoxic, partial curve].

Q: With `CCOC(=O)c1[nH]c(C)c(C(=O)Nc2ccc(C)c(Cl)c2)c1C` as the molecule, how does the Potency read?
A: The Potency was inconclusive: 25.9 µM [cytotoxic, single point].

Q: With `CC(C)NC(=O)c1cc2c(Cl)nc3ccccc3c2s1` as the molecule, how does the Potency read?
A: The Potency was “inactive”.

Q: For `O=S1(=O)CC(N2CCN(CC3CC3)CC2)CN1CCc1ccccc1` (stereo unspecified), which Potency is on record?
A: The Potency was “inactive”.

Q: For `Cc1cc(O)c(C(=O)c2cnc3c(c2)COc2ccccc2-3)cc1Cl`, which Potency is on record?
A: The Potency was “inactive”.

Q: Which Potency does the source give for `Cc1c(C(=O)N2CCOCC2)sc(NC(=O)CCl)c1C#N` here?
A: The Potency was inconclusive: 16.4 µM [cytotoxic, single point].

Q: For `CC12CCC(O)CC1=CCC1C2CCC2(C)C3=NN=CC3CC12` (stereo unspecified), which Potency is on record?
A: Its Potency is inconclusive: 29.1 µM [cytotoxic, single point].

Q: With `CCOC(=O)CCn1nc(-c2ccc(Cl)cc2)cc1N` as the molecule, how does the Potency read?
A: The Potency was active: 20.6 µM.

Q: For `O=C(c1ccc(C#CC2(O)CCCCC2)cc1)N1CCN(C(c2ccccc2)c2ccccc2)CC1`, which Potency is on record?
A: The Potency was inconclusive: 23.1 µM [cytotoxic, single point].

Q: With `CCc1ccn2cc(-c3ccc4c(c3)OCO4)nc2c1` as the molecule, how does the Potency read?
A: Its Potency is inconclusive: 16.4 µM [cytotoxic, single point].

Q: For `CCSc1nc(=S)cc(C)[nH]1`, which Potency is on record?
A: Its Potency is inconclusive: 32.6 µM [cytotoxic, partial curve, poor fit].

Q: For `Cc1cccc(NC(=O)/C(C#N)=C/c2cn(CC(=O)NCc3ccco3)c3ccccc23)c1C`, which activity change, negative = cytotoxic is on record?
A: Its activity change, negative = cytotoxic is inconclusive: -29.6%.

Q: With `Cc1cccc(NC(=O)CNC(=O)C23CC4CC(CC(Cl)(C4)C2)C3)n1` as the molecule, how does the Potency read?
A: The Potency was “inactive”.

Q: Which Potency does the source give for `O=C(O)c1ccc(CNCc2cc(Cl)ccc2O)cc1` here?
A: The Potency was inconclusive: 5.8 µM [rising, full curve].

Q: With `COC(=O)C1=CN(c2ccc(C(C)(C)C)cc2)C(N)=C(C#N)C1c1cccc2ccccc12` (stereo unspecified) as the molecule, how does the Potency read?
A: Its Potency is inconclusive: 29.1 µM [cytotoxic, single point].

Q: With `CC(c1ccccc1)c1nnc(NC(=O)c2ccc3c(c2)OCO3)s1` (stereo unspecified) as the molecule, how does the Potency read?
A: Its Potency is inconclusive: 18.4 µM [cytotoxic, single point].

Q: For `COc1cc(NC(=O)CSc2nc3nc(C)c(Cc4ccccc4)c(C)n3n2)cc(OC)c1`, which Potency is on record?
A: Its Potency is inconclusive: 4.11 µM [cytotoxic, partial curve, poor fit].

Q: Which Potency does the source give for `Cc1cc(=O)[nH]c(N=N/C(=N/Nc2ccc(O)cc2)c2ccccc2)n1` here?
A: Its Potency is inconclusive: 20.6 µM [cytotoxic, single point].

Q: With `OC[C@@H]1CN(Cc2ccccc2)C[C@H](n2cnc3c(NCc4ccncc4)ncnc32)O1` as the molecule, how does the Potency read?
A: The Potency was “inactive”.

Q: For `O=C(NCc1ccccc1)C1CCCN(C(=O)Nc2ccccc2)C1` (stereo unspecified), which Potency is on record?
A: The Potency was inconclusive: 29.1 µM [cytotoxic, single point].

Q: Which Potency does the source give for `COc1ccccc1N1CCN(C(=O)c2onc(C)c2Cl)CC1` here?
A: Its Potency is inconclusive: 29.1 µM [cytotoxic, single point].

Q: With `c1ccc(-c2cnc(-c3ccccn3)nn2)cc1` as the molecule, how does the Potency read?
A: Its Potency is inconclusive: 20.6 µM [cytotoxic, single point].

Q: For `CCCCc1cc(=O)oc2cc(C)cc(OCC(=O)NCc3ccccn3)c12`, which Potency is on record?
A: Its Potency is inconclusive: 29.1 µM [rising, single point].

Q: For `CCOC(=O)[C@]12CCCC=C1N(Cc1ccc3c(c1)OCO3)C(=O)[C@H](CC(=O)NCCc1ccccc1OC)C2`, which Potency is on record?
A: The Potency was inconclusive: 29.1 µM [cytotoxic, single point].

Q: Which Potency does the source give for `COc1ccc(OC)c(CCNC(=O)CS(=O)(=O)Cc2nc(-c3ccccc3Cl)oc2C)c1` here?
A: The Potency was “inactive”.

Q: For `COc1cc(-c2noc(C)c2C#CC2(N)CCCCC2)cc(OC)c1OC`, which Potency is on record?
A: Its Potency is inconclusive: 32.6 µM [cytotoxic, single point].

Q: For `C=CCNC(=O)/C(C#N)=C/c1ccccc1OCc1ccc(C(=O)OC)cc1`, which Potency is on record?
A: The Potency was “inactive”.

Q: With `Cc1ccc(-c2cc(-c3ccccc3)nc(NN)n2)cc1` as the molecule, how does the Potency read?
A: The Potency was inconclusive: 23.1 µM [cytotoxic, single point].

Q: With `O=c1oc(C2(O)CCCCC2)cc2ccc(-c3ccc4[nH]ccc4c3)cc12` as the molecule, how does the Potency read?
A: The Potency was active: 0.82 µM.

Q: Which Potency does the source give for `COc1cc(O)c(C(=O)/C=C/c2ccccc2)c(OC)c1` here?
A: The Potency was inconclusive: 29.1 µM [cytotoxic, single point].

Q: Which Potency does the source give for `CCCCOCCCNC(=S)Nc1ccc(S(=O)(=O)N2CCOCC2)cc1` here?
A: The Potency was inconclusive: 20.6 µM [cytotoxic, single point].

Q: For `Cc1ccc(-c2ccc(CN3C(C)C(=O)N(Cc4cn(CC5CCCCC5)nn4)CCS3(=O)=O)cc2)cc1` (stereo unspecified), which Potency is on record?
A: The Potency was inconclusive: 23.1 µM [cytotoxic, partial curve, poor fit].

Q: For `Cc1ccc(NC(=O)CSc2nsc(SCC(=O)Nc3ccc(C)cc3C)c2C#N)c(C)c1`, which Potency is on record?
A: Its Potency is inconclusive: 25.9 µM [cytotoxic, partial curve, poor fit].

Q: Which Potency does the source give for `C#Cc1ccc(NC(=O)C2(C)CCN2C(=O)c2ccccc2CCc2ccccc2)cc1` (stereo unspecified) here?
A: The Potency was inconclusive: 29.1 µM [cytotoxic, single point].

Q: With `COc1cccc(C(=O)Nc2ccc(N3CCN(C(=O)c4ccco4)CC3)cc2)c1` as the molecule, how does the Potency read?
A: The Potency was active: 4.61 µM.

Q: Which Potency does the source give for `COc1ccc(-c2ccc(SCC(=O)N3CC(=O)Nc4ccccc43)nn2)cc1` here?
A: Its Potency is “inactive”.

Q: With `COc1cc(C(=O)OCC(=O)NCc2ccccc2)cc(NC(=O)c2ccco2)c1OC` as the molecule, how does the Potency read?
A: The Potency was inconclusive: 23.1 µM [cytotoxic, single point].

Q: Which Potency does the source give for `Cc1ccc(N(Cc2ccco2)C(=O)c2ccc(N3CCCCC3)c([N+](=O)[O-])c2)cc1` here?
A: The Potency was inconclusive: 25.9 µM [cytotoxic, single point].

Q: For `O=C(NC1CCN(Cc2ccccc2)CC1)C1CCN(S(=O)(=O)c2cccc3cccnc23)CC1`, which Potency is on record?
A: Its Potency is “inactive”.

Q: With `Cc1ccc(N(C)S(=O)(=O)c2ccc(-c3cnc(C4CC4)o3)cc2)cc1` as the molecule, how does the Potency read?
A: The Potency was active: 3.26 µM and inconclusive: 517 nM [cytotoxic, full curve, poor fit].

Q: For `CCn1c(CN2CCCCC2)nc2cc(NC(=O)COc3cc(C)ccc3C(C)C)ccc21`, which Potency is on record?
A: Its Potency is inconclusive: 29.1 µM [cytotoxic, single point].

Q: Which Potency does the source give for `COc1ccc(-n2sc3ccccc3c2=O)cc1` here?
A: The Potency was inconclusive: 29.1 µM [cytotoxic, single point].

Q: For `O=C(C1CCCCC1)N(Cc1cccnc1)c1nc2c(F)cccc2s1`, which Potency is on record?
A: Its Potency is “inactive”.

Q: With `Cc1c(C(=O)N/N=C/c2ccc(O)cc2)sc(=S)n1C` as the molecule, how does the Potency read?
A: The Potency was inconclusive: 32.6 µM [rising, single point].

Q: Which activity change, negative = cytotoxic does the source give for `CCCN(CC(=O)Nc1ccccc1C)C(=O)c1ccc(=O)n(Cc2ccccc2)n1` here?
A: The activity change, negative = cytotoxic was inconclusive: -84.5%.

Q: Which Potency does the source give for `CCc1ccccc1NC(=O)C/C(C)=N/NC(=O)COc1ccccc1C` here?
A: Its Potency is inconclusive: 20.6 µM [rising, partial curve, poor fit].

Q: For `CC(=O)NCCc1nc2ccccc2n1CCc1ccccc1`, which Potency is on record?
A: The Potency was “inactive”.

Q: Which Potency does the source give for `Cc1ccccc1OCC(=O)N/N=C/c1cn(C)c2ccccc12` here?
A: The Potency was “inactive”.

Q: Which Potency does the source give for `Cc1ccc(C(=O)N/N=C/c2cccc(OC(=O)/C=C/c3ccco3)c2)cn1` here?
A: Its Potency is “inactive”.

Q: For `C(=C\c1c[nH]c2ccccc12)/c1ccc2ccccc2n1`, which Potency is on record?
A: The Potency was “inactive”.

Q: For `Cc1ccc(C)c(NC(=O)N2CCN(c3nnc(C)c4c(C)n(-c5ccccc5)nc34)CC2)c1`, which Potency is on record?
A: The Potency was “inactive”.

Q: For `C[C@H](CO)N1C[C@H](C)[C@H](CN(C)C(=O)Nc2ccccc2)OCc2cnnn2CCCC1=O`, which Potency is on record?
A: Its Potency is “inactive”.

Q: With `O=C(CCc1nc2ccccc2c(=O)[nH]1)Nc1ccc(F)c([N+](=O)[O-])c1` as the molecule, how does the Potency read?
A: Its Potency is inconclusive: 23.1 µM [rising, single point].

Q: With `COc1ccc(NC(=O)C2Cc3c(-c4ccc5c(c4)OCO5)ccnc3O2)cn1` (stereo unspecified) as the molecule, how does the Potency read?
A: Its Potency is inconclusive: 29.1 µM [cytotoxic, single point].

Q: For `O=c1c2c(n3cnnc3n1-c1ccccc1)-c1ccccc1CC21CCCC1`, which Potency is on record?
A: Its Potency is “inactive”.

Q: For `Cc1scc(-c2n[nH]c(=S)n2C(C)c2ccccc2)c1C` (stereo unspecified), which Potency is on record?
A: The Potency was inconclusive: 20.6 µM [cytotoxic, partial curve, poor fit].

Q: For `Cc1cc(C)nc(/N=C(\N)Nc2ccc(OCc3ccccc3)cc2)n1`, which Potency is on record?
A: Its Potency is inconclusive: 18.4 µM [cytotoxic, single point].

Q: Which Potency does the source give for `CCOc1ccc2[nH]c(C(=O)N/N=C/c3ccc(OC)cc3)cc2c1` here?
A: The Potency was active: 1.46 µM.

Q: With `COc1cc(/C=N/OCC(=O)NC2CCCCC2C)ccc1OCc1ccc(Cl)cc1` (stereo unspecified) as the molecule, how does the Potency read?
A: Its Potency is inconclusive: 18.4 µM [cytotoxic, single point].

Q: Which Potency does the source give for `COc1cc(C2C(C#N)=C(C)NC3=C2C(=O)c2ccccc23)cc(OC)c1OC` (stereo unspecified) here?
A: Its Potency is active: 2.06 µM.

Q: With `CC(=O)c1c(N2CCN(CCO)CC2)nc(=S)n(-c2ccccc2)c1C` as the molecule, how does the Potency read?
A: The Potency was “inactive”.

Q: Which Potency does the source give for `COc1ccc(N2CCN(C(=O)c3cn(C4CCCCC4)c(=O)c4c3c3ccccc3n4C)CC2)cc1` here?
A: Its Potency is “inactive”.

Q: Which activity change, negative = cytotoxic does the source give for `COC(=O)C[C@H](NC(=O)Cn1cc(C)c(=O)[nH]c1=O)C(=O)OC` here?
A: The activity change, negative = cytotoxic was inconclusive: 4.53%.

Q: Which Potency does the source give for `COC(=O)CSCc1nc(-c2ccc(C(=O)OC)cc2)oc1C` here?
A: Its Potency is “inactive”.

Q: Which Potency does the source give for `COc1cccc(NC(=O)CSc2cc(C)[nH]c(=O)n2)c1` here?
A: Its Potency is “inactive”.

Q: For `COc1ccc(/C=N/Nc2nccnc2Cl)cc1`, which Potency is on record?
A: Its Potency is “inactive”.

Q: Which Potency does the source give for `CCN1C(=O)[C@@H]2[C@@H](c3ccc(SC4CCCCC4)c(OC)c3)N3CCCC[C@@]3(C(=O)OC)[C@@H]2C1=O` here?
A: The Potency was inconclusive: 29.1 µM [cytotoxic, single point].

Q: For `Cc1onc(-c2c(F)cccc2Cl)c1C(=O)OCC(=O)Nc1cccc(S(=O)(=O)N(C)C)c1`, which Potency is on record?
A: The Potency was inconclusive: 29.1 µM [cytotoxic, single point].

Q: For `CC1N=C2c3ccccc3N=C(SCC(=O)NCc3ccc(Cl)cc3)N2C1=O` (stereo unspecified), which Potency is on record?
A: The Potency was “inactive”.

Q: With `CC1(C(=O)Nc2ccccc2F)CCN1C(=O)Cc1ccc(-c2ccccc2)cc1` (stereo unspecified) as the molecule, how does the Potency read?
A: Its Potency is inconclusive: 29.1 µM [cytotoxic, single point].
